From publication PMC12382147
No constants are given. Whether binding was seen depends on the method and setting. For some assays here: In cells and extracts the contact can be indirect. Some results given as binding are weak or reduced against the parent protein; the word gives no strength. For some assays here: Tags and fused reporters may be left off the sequences shown. Each block holds one molecule with its values, some of them ahead of it.

Sequences of proteins named here, by UniProt entry; tags and fusion partners are left off.
UniProt Q9UNE7: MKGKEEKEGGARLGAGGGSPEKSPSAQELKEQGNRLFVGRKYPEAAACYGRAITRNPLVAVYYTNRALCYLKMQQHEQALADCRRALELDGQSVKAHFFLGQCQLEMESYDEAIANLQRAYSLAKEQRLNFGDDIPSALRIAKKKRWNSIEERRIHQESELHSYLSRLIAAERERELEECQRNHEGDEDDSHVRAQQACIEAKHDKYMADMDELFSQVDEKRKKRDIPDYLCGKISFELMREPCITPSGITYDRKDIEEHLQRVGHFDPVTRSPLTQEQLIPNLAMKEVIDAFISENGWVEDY
UniProt Q13263: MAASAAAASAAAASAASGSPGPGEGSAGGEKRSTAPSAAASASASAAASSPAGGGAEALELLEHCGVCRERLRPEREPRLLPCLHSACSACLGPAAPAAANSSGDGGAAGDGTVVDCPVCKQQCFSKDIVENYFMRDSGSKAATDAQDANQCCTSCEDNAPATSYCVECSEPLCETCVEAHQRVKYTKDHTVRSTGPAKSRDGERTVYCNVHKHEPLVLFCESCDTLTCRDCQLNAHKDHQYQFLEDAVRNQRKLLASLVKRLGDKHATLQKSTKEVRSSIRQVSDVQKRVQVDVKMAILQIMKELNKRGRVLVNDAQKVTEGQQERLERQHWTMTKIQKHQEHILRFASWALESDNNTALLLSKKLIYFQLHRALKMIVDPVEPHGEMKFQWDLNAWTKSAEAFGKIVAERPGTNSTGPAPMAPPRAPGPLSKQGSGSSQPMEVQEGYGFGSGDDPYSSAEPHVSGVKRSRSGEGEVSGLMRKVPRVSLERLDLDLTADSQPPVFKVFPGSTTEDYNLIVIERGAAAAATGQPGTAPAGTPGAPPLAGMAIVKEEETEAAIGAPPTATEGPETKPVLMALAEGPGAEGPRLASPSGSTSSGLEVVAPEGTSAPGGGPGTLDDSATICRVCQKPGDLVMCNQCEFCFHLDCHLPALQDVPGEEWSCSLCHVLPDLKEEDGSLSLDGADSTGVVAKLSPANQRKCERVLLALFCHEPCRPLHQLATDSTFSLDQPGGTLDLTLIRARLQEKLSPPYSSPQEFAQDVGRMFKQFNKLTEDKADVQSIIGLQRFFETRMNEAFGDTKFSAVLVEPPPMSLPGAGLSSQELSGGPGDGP
UniProt Q9WUD1: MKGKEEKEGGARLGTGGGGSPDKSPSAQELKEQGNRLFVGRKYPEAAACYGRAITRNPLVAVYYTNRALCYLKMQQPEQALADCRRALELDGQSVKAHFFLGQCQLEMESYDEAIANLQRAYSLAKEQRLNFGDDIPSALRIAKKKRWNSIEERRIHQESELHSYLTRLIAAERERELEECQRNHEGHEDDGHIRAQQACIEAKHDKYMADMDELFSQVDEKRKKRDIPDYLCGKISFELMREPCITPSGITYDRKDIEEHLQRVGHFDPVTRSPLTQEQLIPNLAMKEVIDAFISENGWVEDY

Columns and labels:
[1] = biological target: T1, glutathione S-transferase (GST)-TPIT fusion protein (UniProt O60806); assay: pull-down; GST pulldown with purified GST-TPIT or GST and purified His-STUB1; as previously described (ref. 21); both purified
T1 sequence: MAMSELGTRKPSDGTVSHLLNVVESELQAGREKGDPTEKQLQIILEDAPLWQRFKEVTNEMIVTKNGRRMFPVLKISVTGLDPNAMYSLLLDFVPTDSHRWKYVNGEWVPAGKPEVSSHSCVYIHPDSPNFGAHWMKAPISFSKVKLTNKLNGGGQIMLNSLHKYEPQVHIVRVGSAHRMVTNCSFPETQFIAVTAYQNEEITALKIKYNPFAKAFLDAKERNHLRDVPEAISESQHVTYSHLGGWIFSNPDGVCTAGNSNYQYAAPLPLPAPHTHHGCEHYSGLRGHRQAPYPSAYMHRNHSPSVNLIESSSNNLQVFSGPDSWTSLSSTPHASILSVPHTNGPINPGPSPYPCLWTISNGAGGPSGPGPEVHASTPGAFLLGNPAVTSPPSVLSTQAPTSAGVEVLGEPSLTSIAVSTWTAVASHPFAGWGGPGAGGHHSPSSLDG

Smbit-TPIT [2] = biological target: T2, Smbit-TPIT (UniProt O60806); assay: split reporter; NanoBiT; HEK-293T transfected with LgBiT and SmBiT plasmids, lysed, luminescence of the supernatant with furimazine in 96-well plates
T2 sequence: T1 sequence

Smbit-TPIT [3] = biological target: T2, Smbit-TPIT; assay: split reporter; NanoBiT for drug screening; HEK-293T transfected with Smbit-TPIT and Lgbit-STUB1, 5000 cells per well in 384-well plates with furimazine; 1913 compounds at 1 uM, read at 15, 30, 60 and 120 min
Flag-TPIT = biological target: T3, Flag-TPIT (UniProt O60806); assay: co-IP; exogenous ('external') Co-IP of Flag-TPIT with candidate ubiquitin ligases, Myc-tagged STUB1 or its truncated mutants; Triton X-100 lysis buffer, rProtein A/G beads, immunoblot; also with Irbesartan, Bosentan or Lumiracoxib (interaction enhanced)
T3 sequence: T1 sequence

[4] = biological target: T4, TPIT, endogenous in corticotropin cells (human (endogenous in primary corticotroph tumor cells)) (UniProt O60806); assay: co-IP; endogenous Co-IP in AtT-20 and corticotropin cells; Triton X-100 lysis buffer, rProtein A/G beads, immunoblot
T4 sequence: T1 sequence

[5] = biological target: T5, TPIT, endogenous in AtT-20 cells (mouse (endogenous in AtT-20)) (UniProt Q99ME7); assay: as above
T5 sequence: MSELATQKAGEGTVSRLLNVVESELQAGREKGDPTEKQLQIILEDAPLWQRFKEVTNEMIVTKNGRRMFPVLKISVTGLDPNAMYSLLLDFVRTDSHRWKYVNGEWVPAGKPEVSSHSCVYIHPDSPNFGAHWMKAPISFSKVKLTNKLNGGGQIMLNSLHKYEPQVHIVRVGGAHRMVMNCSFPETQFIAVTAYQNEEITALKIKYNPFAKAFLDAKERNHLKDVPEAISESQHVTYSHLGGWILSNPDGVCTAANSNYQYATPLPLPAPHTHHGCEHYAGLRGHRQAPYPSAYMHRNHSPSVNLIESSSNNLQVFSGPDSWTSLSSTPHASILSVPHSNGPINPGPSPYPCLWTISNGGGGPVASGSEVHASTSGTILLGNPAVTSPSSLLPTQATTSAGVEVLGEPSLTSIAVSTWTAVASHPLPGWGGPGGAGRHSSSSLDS

binding [1]: binds
Molecule: His-STUB1 (from UniProt Q9UNE7 1-303) (enzyme)

binding (Smbit-TPIT [2]): binds
binding (Smbit-TPIT [3]): binds
Molecule: Lgbit-STUB1 (from UniProt Q9UNE7 1-303) (enzyme)

binding [4]: binds
Molecule: STIP1 Homology and U-Box Containing Protein 1 (STUB1), endogenous, human cells (from UniProt Q9UNE7 1-303) (enzyme)

binding (Flag-TPIT): binds
Molecule: Tripartite motif-containing protein 28 (TRIM28), Co-IP verification (from UniProt Q13263 1-835) (enzyme)

Further lines, the molecule ahead of its results:

Molecule: Myc-STUB1 (wild-type) (from UniProt Q9UNE7 1-303) (enzyme)
binding (Flag-TPIT): binds

Molecule: STUB1, endogenous in AtT-20 cells (from UniProt Q9WUD1 1-304) (enzyme)
binding [5]: binds

B1: PLRG1, Co-IP verification (protein, UniProt O43660 1-514)
chain: MVEEVQKHSVHTLVFRSLKRTHDMFVADNGKPVPLDEESHKRKMAIKLRNEYGPVLHMPTSKENLKEKGPQNATDSYVHKQYPANQGQEVEYFVAGTHPYPPGPGVALTADTKIQRMPSESAAQSLAVALPLQTKADANRTAPSGSEYRHPGASDRPQPTAMNSIVMETGNTKNSALMAKKAPTMPKPQWHPPWKLYRVISGHLGWVRCIAVEPGNQWFVTGSADRTIKIWDLASGKLKLSLTGHISTVRGVIVSTRSPYLFSCGEDKQVKCWDLEYNKVIRHYHGHLSAVYGLDLHPTIDVLVTCSRDSTARIWDVRTKASVHTLSGHTNAVATVRCQAAEPQIITGSHDTTIRLWDLVAGKTRVTLTNHKKSVRAVVLHPRHYTFASGSPDNIKQWKFPDGSFIQNLSGHNAIINTLTVNSDGVLVSGADNGTMHLWDWRTGYNFQRVHAAVQPGSLDSESGIFACAFDQSESRLLTAEADKTIKVYREDDTATEETHPVSWKPEIIKRKRF
binding (Flag-TPIT): binds
